From publication PMC12040169 (PLOS Biology, 2025)
This is one part of the list.

The compounds below were run on T1, CTL2-GFP (C. trachomatis L2/434/Bu, GFP-expressing). Details: bulk GFP, single well; 28.5 h, 10 µM; inhibitor.
T1 construct: L2/434/Bu, GFP-expressing
Parameters: species or system HeLa; Intracellular C. trachomatis growth in HeLa cells, bulk GFP fluorescence relative to DMSO

Compared with `COc1cc(OC)c2c(c1)OC1(CCN(C(=O)C3CCCO3)CC1)CC2=O` (stereo not shown) [CBK156476], `O=C(NC1CC2(CCCC2)Oc2ccccc21)C1CCCO1` (stereo not shown) [CBK282420] is higher in “% of control remaining” value: 99.1273% for the first, 100.928% for the second.

Compared with `Cc1cc(OCC(=O)NCc2cccnc2)cc(C)c1Cl` [CBK263658], `Cc1cc(C)n(C(=O)CCC(=O)Nc2cccc(Cl)c2C)n1` [CBK263851] is lower in “% of control remaining” value: 117.545% for the first, 113.051% for the second.

Compared with `NC(=O)c1ccc(C(=O)NCC2CN3CCCN2CC3)cc1` (stereo not shown) [CBK304143], `CCCCOC(=O)c1ccc(N2C(=O)CC(N3CCN(c4ccc(F)cc4)CC3)C2=O)cc1` (stereo not shown) [CBK265527] is lower in “% of control remaining” value: 117.49% for the first, 111.617% for the second.

First: O=C(CCn1c(=O)oc2ccccc21)Nc1ccc(S(=O)(=O)N2CCCCC2)cc1 [CBK268365]
Second: CC(C(=O)Nc1ccc(S(N)(=O)=O)cc1)N(C)Cc1cccs1 (stereo not shown) [CBK305945]
The “% of control remaining” value of the first is higher: 165.844% for the first, 122.836% for the second.

Going from `COc1ncc(-c2cncc(Nc3ccccc3)n2)c(OC)n1` [CBK065282] to `CC(C)C(=O)Nc1ccc2c(-c3ccccc3)ccnc2n1` [CBK073671], the “% of control remaining” value falls from 135.541% to 135.034%.

First: CCCc1[nH]nc(O)c1CCc1ccccc1F [CBK075080]
Second: C=C(C)Cn1c(SCC(C)C)nnc1-c1ccccc1F [CBK200077]
The “% of control remaining” value of the first is higher: 108.426% for the first, 93.475% for the second.

First: CC(C)c1nsc(NS(=O)(=O)c2cc(C(F)(F)F)cc(C(F)(F)F)c2)n1 [CBK051263]
Second: Oc1cc(C(F)(F)F)nc2[nH]nc(-c3cccs3)c12 [CBK008498]
The “% of control remaining” value of the first is higher: 147.459% for the first, 124.448% for the second.

Compared with `Cc1cccn2cc(CCNC(=O)N[C@H](C)C(=O)N(C)C)nc12` [CBK304617], `CC(=O)NCCC(=O)Nc1cc(C)ccc1C` [CBK306115] is higher in “% of control remaining” value: 94.0122% for the first, 130.787% for the second.

Going from `COCCC(=O)N1C2CCC(C2)[C@@H]1COc1ccc(F)cc1` (stereo partly shown) [CBK284604] to `O=C(CN1CCC(c2ccc(F)cc2)CC1)NCc1ccco1` [CBK283641], the “% of control remaining” value falls from 121.804% to 109.94%.

First: CCOc1ncccc1CNc1ncnc2c1cnn2CCO [CBK305964]
Second: CSc1ccccc1Nc1ncnc2n[nH]cc12 [CBK288099]
The “% of control remaining” value of the first is higher: 140.401% for the first, 137.003% for the second.

Compared with `O=C1NCC2(CCN(C(=O)c3cccs3)CC2)Oc2ccccc21` [CBK282917], `CNC(=O)C1(Cc2ccccc2-c2ccccc2)CCN(C(=O)Cc2ccc(C)cc2)CC1` [CBK286274] is lower in “% of control remaining” value: 115.261% for the first, 109.276% for the second.

First: COc1ccc(-c2cnc(N)c(NCCCN3CCOCC3)n2)c(OC)c1OC [CBK063676]
Second: O=S(=O)(NCCN1CCOCC1)c1cc(Cl)ccc1Cl [CBK261757]
The “% of control remaining” value of the first is higher: 118.605% for the first, 101.201% for the second.

Going from `O=C(CN1CCN(Cc2ccccc2)CC1)Nc1ccccc1Oc1ccccc1` [CBK074782] to `CC(C)OC(=O)N1CCC(C(=O)NC(c2ccccc2)c2ccc3ccccc3n2)CC1` (stereo not shown) [CBK059642], the “% of control remaining” value rises from 110.8% to 158.894%.

First: CC(=O)NC(C)(COc1nonc1C)COc1nonc1C [CBK265955]
Second: Cc1nc(NC(=O)Cc2c(C)nn(CC(C)C)c2C)sc1-c1n[nH]c(=S)n1C [CBK296691]
The “% of control remaining” value of the first is lower: 101.139% for the first, 120.58% for the second.

Going from `O=S(=O)(NCCSCc1c(Cl)cccc1Cl)c1ccc(Cl)cc1` [CBK265304] to `CC(NS(=O)(=O)c1ccc(CCC(=O)O)cc1)c1ccccc1` (stereo not shown) [CBK267058], the “% of control remaining” value rises from 124.314% to 183.255%.

First: CC(C)(C)c1ccc(OCc2nnc(S)n2N)cc1 [CBK268421]
Second: CC(NC(=O)N(C)Cc1ccc2ccccc2n1)c1nncn1C(C)C (stereo not shown) [CBK307197]
The “% of control remaining” value of the first is higher: 103.467% for the first, 94.5983% for the second.

First: COc1ccc(C=CC(=O)ONC(=O)c2ccc(OC(F)F)cc2)cc1OC [CBK296098]
Second: COc1ccc(S(=O)(=O)Nc2nccnc2-c2cccs2)cc1OC [CBK050774]
The “% of control remaining” value of the first is higher: 115.486% for the first, 92.6189% for the second.

First: Cc1cccnc1CN(C)C(=O)c1cccc(NC(=O)C2CCCC2)c1 [CBK306913]
Second: CS(=O)(=O)N1CCCC(C(=O)Nc2cccc3cccnc23)C1 (stereo not shown) [CBK299783]
The “% of control remaining” value of the first is higher: 128.936% for the first, 83.2635% for the second.

First: CC(C)C(=O)Nc1nc2c(nc(OCc3ccccc3)n2C2CC(O)C(CO)O2)c(=O)[nH]1 (stereo not shown) [CBK201264]
Second: CC(CCc1ccccc1)NC(=O)C(C)Sc1nnc(-c2cccs2)n1C1CC1 (stereo not shown) [CBK297131]
The “% of control remaining” value of the first is higher: 131.329% for the first, 125.528% for the second.

Going from `O=C(Cc1ccc(Cl)c(Cl)c1)N1CCC2(CCN(C(=O)c3cc(F)c(F)cc3F)C2)C1` (stereo not shown) [CBK131386] to `C#CCN1CC[C@]2(c3ccc(OC)c(OC)c3)CC[C@@H](NC(=O)Nc3ccc(F)c(F)c3)C[C@H]12` [CBK056657], the “% of control remaining” value falls from 121.396% to 55.9504%.

First: O=C(O)c1ccc(N2CC(C(=O)Nc3ccc(F)cc3)CC2=O)cc1 (stereo not shown) [CBK286794]
Second: O=C(O)C1Cc2ccccc2CN1C(=O)c1ccccc1 (stereo not shown) [CBK286628]
The “% of control remaining” value of the first is higher: 116.824% for the first, 97.8958% for the second.

Going from `O=C(NCCCNc1ccc([N+](=O)[O-])cc1)c1cccs1` [CBK066825] to `O=C(Nc1cccc(Cl)c1Cl)c1cccs1` [CBK057672], the “% of control remaining” value falls from 104.568% to 88.5908%.

Compared with `Nc1cccc(-c2nccnc2N2CCCC2CO)c1` (stereo not shown) [CBK036786], `Nc1ncc(-c2cccc3ncccc23)nc1N1CCC[C@@H]1CO` [CBK063441] is higher in “% of control remaining” value: 106.135% for the first, 164.627% for the second.

First: COc1ccc2c(Cl)c(C(=O)NCCc3ccc(S(N)(=O)=O)cc3)sc2c1 [CBK268120]
Second: Cc1cc(CNC(=S)Nc2ccc(S(N)(=O)=O)cc2)nn1C [CBK267077]
The “% of control remaining” value of the first is higher: 125.695% for the first, 83.8241% for the second.

Going from `CNC(=O)c1sc2ccccc2c1C1CCN(Cc2ccc(OC)c(OC(C)C)c2)C1` (stereo not shown) [CBK285928] to `CCc1nc(CN2CCCC(NC(C(N)=O)c3ccccc3)C2)no1` (stereo not shown) [CBK305348], the “% of control remaining” value falls from 121.625% to 113.351%.

First: COc1ccc(CCn2cncc2-c2cnn(C)c2)cc1C [CBK281457]
Second: COCCCNC(=O)c1cnn2c(C)c(Cc3cccc(F)c3)c(C)nc12 [CBK162126]
The “% of control remaining” value of the first is higher: 101.492% for the first, 78.6522% for the second.

Compared with `CC(=O)Nc1ccc2nc(Nc3nc4c(F)cc(F)cc4s3)sc2c1` [CBK287489], `Cc1cc(F)c(S(N)(=O)=O)cc1NC(=O)c1cccc(Br)c1` [CBK051488] is lower in “% of control remaining” value: 145.707% for the first, 83.3794% for the second.

Going from `O=C(NCCCN1CCCCC1)C1CC(=O)N(Cc2ccco2)C1` (stereo not shown) [CBK305145] to `Cn1c2c(ccc1=O)CCCCC2` [CBK005987], the “% of control remaining” value rises from 107.312% to 128.782%.

First: CCN(CC)CC(O)Cn1c(-c2cccc([N+](=O)[O-])c2)nc(=S)c2c1CCCC2 (stereo not shown) [CBK265700]
Second: Cc1cc(O)n2nc(CC(=O)NCc3nnc4n3CCCCC4)nc2n1 [CBK306989]
The “% of control remaining” value of the first is higher: 111.351% for the first, 110.752% for the second.

Compared with `COCCNc1nc(-c2ccc3c(c2)OCO3)ccc1C(=O)N(C)CCN(C)C` [CBK105915], `CC(=O)Nc1ccc(CN(C)c2c(C)nc3ccc(C(=O)N(C)CCN(C)C)cn23)cc1` [CBK147107] is higher in “% of control remaining” value: 109.21% for the first, 111.321% for the second.

Going from `COCc1nnc(Sc2nccnc2N2CCCC2)s1` [CBK093736] to `CCCC/C=C/c1cnc(N2CCOCC2)c2nccn12` [CBK091256], the “% of control remaining” value falls from 103.057% to 92.5253%.

First: O=C(NCc1ccccc1)c1cccc(NC(=O)c2cc(-c3ccccn3)nc3ccc(Cl)cc23)c1 [CBK267768]
Second: Oc1ccc(/C=N/Nc2nnc(-c3ccccc3)c(-c3ccccc3)n2)cc1 [CBK262011]
The “% of control remaining” value of the first is higher: 149.321% for the first, 116.871% for the second.

Going from `O=C(CSc1oc(-c2ccco2)nc1S(=O)(=O)c1ccccc1)c1ccccc1` [CBK268424] to `O=C(CSc1nnc2c(n1)[nH]c1ccccc12)Nc1ccccc1[N+](=O)[O-]` [CBK263195], the “% of control remaining” value falls from 128.471% to 99.3307%.

Going from `Cc1nnc(N/N=C\c2c(Cl)cccc2Cl)[nH]c1=O` [CBK027921] to `CN1CC(=O)N(c2ccc(Cl)cc2Cl)C1=O` [CBK116319], the “% of control remaining” value falls from 112.007% to 111.487%.

First: CC(C)(C)OC(=O)N1CCC(C2OCc3cc(-c4ccc(C(=O)N5CCOCC5)o4)ccc3O2)CC1 (stereo not shown) [CBK173615]
Second: COc1ccc(-c2cn(C[C@H]3CC4CCN3C[C@@H]4C(=O)NC3CCCCC3)nn2)cc1 (stereo partly shown) [CBK289084]
The “% of control remaining” value of the first is lower: 111.946% for the first, 138.199% for the second.

Compared with `COc1ccc2[nH]cc(CCNC(=O)c3cc(-c4cccc(NC(C)=O)c4)cnc3N(C)S(C)(=O)=O)c2c1` [CBK076599], `CNCCc1nc(-c2ccc(F)cc2)c2cnccn12` [CBK035927] is higher in “% of control remaining” value: 164.643% for the first, 204.321% for the second.

Compared with `O=C(O)C1CCCCN1S(=O)(=O)c1ccc(Br)cc1` (stereo not shown) [CBK101789], `CCOC(=O)C1CCN(S(=O)(=O)c2ccc(C(C)C)cc2)CC1` [CBK200044] is lower in “% of control remaining” value: 116.516% for the first, 100.831% for the second.

Going from `Cc1csc2c(C3CCCN(C(=O)C4CC4)C3)nc(C)n12` (stereo not shown) [CBK285212] to `CC1CCCCC12NC(=O)N(Cc1csc(-c3cccs3)n1)C2=O` (stereo not shown) [CBK305829], the “% of control remaining” value rises from 103.337% to 140.445%.

Compared with `COC1(CNC(=O)c2cc3ccccc3[nH]2)CCSC1` (stereo not shown) [CBK304605], `FC(F)(F)c1ccc(N2CCNCC2)nc1OCCOc1ccc2ccccc2c1` [CBK200002A] is lower in “% of control remaining” value: 134.528% for the first, 61.7688% for the second.

`Cc1cccc(CNc2nccnc2-c2ccncc2)c1` [CBK037453] was tested, and the “% of control remaining” value was 104.18%.
